Experimental data taken from PubChem BioAssay AID651640 (Broad Institute, 2012).
Among all 350,000 compounds or so, about 6,000 (1.7%) were called active. Inconclusive means that the source gave no clear call. Such entries were picked first, then a sample of the others. Rule as the data show it: active = CPE inhibition above about 20% (passing the limit was not always enough); inconclusive = no clear call, values can overlap the other calls; tested in BHK-21 cells. More than one record can exist for a structure, and the calls need not agree.

assay: protection of cells from dengue 2 killing – plate reader, single concentration, primary screen (AID 651640); settings: DENV2-infected cells, cytopathic effect rescue, at 9.99 µM, active compounds read high;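 also: 0% = median of neutral control wells and 100% = median of positive control wells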

Row | SMILES | CPE inhibition
1 | O=C(C1=C[C@H](c2coc3ccccc3c2=O)C[C@H](OCCCCO)O1)N1CCN(Cc2ccc3c(c2)OCO3)CC1 | inconclusive: 32.6%
2 | COc1ccccc1C(=O)N=Nc1c(O)[nH]c2ccc([N+](=O)[O-])cc12 | inactive: 13.5%
3 | Cc1ccc(NC(=O)CCN2C(=O)NC3(CCCC3)C2=O)cc1 | inconclusive: 21.3%
4 | COc1ccc(NC(=O)CN(C)C(=O)CCSc2ccc(C)cc2)cc1 | active: 61.9%
5 | CCCC#Cc1ccc2c(c1)O[C@@H](CN(C)C(=O)C1CCC1)[C@@H](C)CN([C@@H](C)CO)S2(=O)=O | inactive: 4.01%
6 | O=C(C[C@@H]1C=C[C@@H](NS(=O)(=O)c2ccccc2)[C@H](CO)O1)NCc1ccc(Cl)c(Cl)c1 | inactive: -2.11%
7 | COC(=O)c1cc(NC(C)=O)ccc1N1CCOCC1 | inconclusive: 38%
8 | CC(C)(O[C@@H]1O[C@H](CO)[C@@H](O)[C@H](O)[C@H]1O)[C@H]1Cc2cc3ccc(=O)oc3cc2O1 | inconclusive: 57.9%
9 | CC1(C)CC(=O)c2cc(O)ccc2O1 | inconclusive: 87.2%
10 | CC(=O)c1ccc(OC(C)C(=O)NC2CCCCC2C)cc1 (stereo not given) | active: 66.7%
11 | CC(=O)N1CCCCN2[C@H](CO)[C@H](c3ccc(-c4cccc(C(=O)N(C)C)c4)cc3)[C@H]2C1 | inactive: -8.75%
12 | CCOC(=O)C1(C(=O)OCC)COC(=O)C1CN1Cc2cc3ccccc3nc2C1 (stereo not given) | inconclusive: 65.5%
13 | O=C(Nc1ccc(F)c(Cl)c1)c1cncs1 | inconclusive: 27.2%
14 | O=S(=O)(Cc1ccccc1)N1CCCCN2[C@H](C1)[C@H](c1ccc(-c3ccc(F)cc3)cc1)[C@@H]2CO | inconclusive: 26.2%
15 | COC(=O)[C@H]1[C@H](CO)[C@H]2Cn3c(ccc(C4=CCCCC4)c3=O)[C@H]2N1CC1CCCCC1 | inconclusive: 60.7%
16 | C[C@H](CO)N1C[C@H](C)[C@@H](CN(C)C(=O)Nc2ccc(C(F)(F)F)cc2)Oc2c(NC(=O)C3CCCCC3)cccc2C1=O | active: 22.1%
17 | CC(Cc1ccccc1)NC(=O)CN1C(=O)c2ccccc2S1(=O)=O (stereo not given) | inconclusive: 20.4%
18 | C=CCOc1c(Br)cc(/C=C2/NC(=S)N(C(C)=O)C2=O)cc1OC | inconclusive: 29.6%
19 | CCCNC(=O)C[C@@H]1CC[C@@H]2[C@H](COc3ccc(NC(=O)COC)cc3C(=O)N2C)O1 | inconclusive: 33%
20 | C[C@@H]1CN([C@@H](C)CO)C(=O)c2cc(NS(=O)(=O)c3cn(C)cn3)ccc2O[C@H]1CN(C)C(=O)NC1CCCCC1 | active: 45%
21 | CC(=O)Nc1c(-c2ccccc2)nc2ncccn12 | inactive: 3.7%
22 | C[C@@H]1CCCCO[C@@H](CN(C)C(=O)Nc2ccc(F)cc2)[C@@H](C)CN([C@H](C)CO)C(=O)c2cc(NC(=O)c3ccncc3)ccc2O1 | inactive: 8.69%
23 | Cc1ccn2c(=O)c(NC(=O)c3cccc4ccccc34)c(C)nc2c1 | inconclusive: 25.8%
24 | CC(C)N(C(=O)[C@H]1CC(CC(=O)NCC23CC4CC(CC(C4)C2)C3)C(=O)N2CCc3c([nH]c4ccccc34)[C@]12C)C(C)C (stereo not given in full) | inconclusive: 41.3%

Row | SMILES | CPE inhibition
25 | CC[n+]1ccccc1/C=C/c1ccc(N(C)C)cc1 | inactive: 8.41%
26 | O=C(C1CCCCC1)N1CC2(C1)[C@H](c1ccccc1)[C@H](CO)N2Cc1cncnc1 | active: 40.4%
27 | Cc1ccc(S(=O)(=O)N2CCN(C(=O)c3ccc(-n4cncn4)c([N+](=O)[O-])c3)CC2)cc1C | inconclusive: 37.8%
28 | Cc1cccc(C)c1NC(=O)CN1CCN(C(=O)c2cc(C3CC3)nn2-c2ccccc2)CC1 | active: 80.6%
29 | O=C(c1ccccn1)N1CC(=O)N2[C@H](CO)[C@@H](c3ccc(C#CCc4ccccc4)cc3)[C@@H]2C1 | inactive: 11.4%
30 | O=C(O)c1cc(S(=O)(=O)NCCCN2CCCC2=O)ccc1Cl | inconclusive: 31.9%
31 | CC(OC(=O)Cn1cnc2c1c(=O)n(C)c(=O)n2C)C(=O)N(C)c1ccccc1 (stereo not given) | inconclusive: 63.6%
32 | O=C(OCC(=O)N1CCOCC1)c1cc(=O)[nH]c2ccccc12 | active: 27.9%
33 | C[C@H](CO)N1C[C@H](C)[C@H](CN(C)C(=O)NC2CCCCC2)Oc2ccc(NC(=O)Nc3ccccc3)cc2C1=O | inactive: 2.43%
34 | CCCCNc1c(-c2ccc(Sc3ccc(OC)cc3)cc2)nc2cc(C)ccn12 | active: 82.1%
35 | CS(=O)(=O)N1[C@@H]2Cn3c(ccc(-c4ccc(F)cc4)c3=O)[C@H]1[C@@H](C(=O)NCC1CC1)[C@@H]2CO | inconclusive: 77.2%
36 | COc1ccc([C@@H]2[C@@H]3C(=O)N(C(C)(C)C)C(=O)[C@@H]3[C@]3(Cc4ccc(Cl)cc4)C(=O)N(c4ccc(C)cc4)C(=O)N23)cc1 | inactive: -8.2%
37 | COc1cc(C(=O)C(=O)c2ccc(O)c(OC)c2)ccc1O | inactive: 0.234%
38 | O=C(CSc1ccccc1)Nc1cccc(S(=O)(=O)N2CCCCC2)c1 | inconclusive: 27.7%
39 | CCCCCCCCN1C(=O)[C@H](CC(=O)NCCCOCCCC)C[C@@]2(C(=O)OC)CC(C)(C)CC=C12 | inconclusive: 66.5%
40 | C[C@H](CO)N1C[C@H](C)[C@@H](CN(C)C(=O)Nc2cccc3ccccc23)OCCCC[C@H](C)Oc2ccc(NC(=O)Cc3ccccc3)cc2C1=O | inconclusive: 43.5%
41 | CCCCNC(=O)c1onc(CSc2cccc(F)c2)c1C(=O)O | inconclusive: 100%
42 | COc1ccc(NC(=O)COC(=O)c2ccc3c(c2)OCCO3)cc1OC | inactive: 10.3%
43 | COC(=O)[C@@H]1[C@@H](CO)[C@@H]2Cn3c(ccc(-c4cccc(F)c4)c3=O)[C@@H]2N1C(C)=O | inconclusive: 30.4%
44 | Cc1ccc(NC(=O)c2cc(-c3cc(Cl)ccc3C)n[nH]2)cc1NS(C)(=O)=O | active: 26.5%
45 | CC(=O)C[C@@H](O)CC(=O)[C@@H]1OC(=O)CCCCCCc2ccccc21 | inactive: -2.5%
46 | COc1ccc(NC(=O)Nc2ccc3c(c2)C(=O)N([C@H](C)CO)C[C@H](C)[C@H](CN(C)Cc2ccccc2)OCCCC[C@@H](C)O3)cc1 | active: 26.3%
47 | O=C(C1CCCC1)N1CC(=O)N2[C@@H](CO)[C@H](c3ccc(-c4ccccc4F)cc3)[C@@H]2C1 | inactive: 4.57%
48 | C/C=C/c1ccc([C@H]2[C@@H](CO)N(CC3CC3)[C@@H]2CNC(=O)NC(C)C)cc1 | active: 24.3%

18 entries out of the list, sorted by heavy-atom count, smallest number first:
Row | SMILES | CPE inhibition
25 | CC[n+]1ccccc1/C=C/c1ccc(N(C)C)cc1 | inactive: 8.41%
37 | COc1cc(C(=O)C(=O)c2ccc(O)c(OC)c2)ccc1O | inactive: 0.234%
32 | O=C(OCC(=O)N1CCOCC1)c1cc(=O)[nH]c2ccccc12 | active: 27.9%
41 | CCCCNC(=O)c1onc(CSc2cccc(F)c2)c1C(=O)O | inconclusive: 100%
45 | CC(=O)C[C@@H](O)CC(=O)[C@@H]1OC(=O)CCCCCCc2ccccc21 | inactive: -2.5%
38 | O=C(CSc1ccccc1)Nc1cccc(S(=O)(=O)N2CCCCC2)c1 | inconclusive: 27.7%
48 | C/C=C/c1ccc([C@H]2[C@@H](CO)N(CC3CC3)[C@@H]2CNC(=O)NC(C)C)cc1 | active: 24.3%
44 | Cc1ccc(NC(=O)c2cc(-c3cc(Cl)ccc3C)n[nH]2)cc1NS(C)(=O)=O | active: 26.5%
31 | CC(OC(=O)Cn1cnc2c1c(=O)n(C)c(=O)n2C)C(=O)N(C)c1ccccc1 (stereo not given) | inconclusive: 63.6%
34 | CCCCNc1c(-c2ccc(Sc3ccc(OC)cc3)cc2)nc2cc(C)ccn12 | active: 82.1%
47 | O=C(C1CCCC1)N1CC(=O)N2[C@@H](CO)[C@H](c3ccc(-c4ccccc4F)cc3)[C@@H]2C1 | inactive: 4.57%
27 | Cc1ccc(S(=O)(=O)N2CCN(C(=O)c3ccc(-n4cncn4)c([N+](=O)[O-])c3)CC2)cc1C | inconclusive: 37.8%
28 | Cc1cccc(C)c1NC(=O)CN1CCN(C(=O)c2cc(C3CC3)nn2-c2ccccc2)CC1 | active: 80.6%
39 | CCCCCCCCN1C(=O)[C@H](CC(=O)NCCCOCCCC)C[C@@]2(C(=O)OC)CC(C)(C)CC=C12 | inconclusive: 66.5%
33 | C[C@H](CO)N1C[C@H](C)[C@H](CN(C)C(=O)NC2CCCCC2)Oc2ccc(NC(=O)Nc3ccccc3)cc2C1=O | inactive: 2.43%
36 | COc1ccc([C@@H]2[C@@H]3C(=O)N(C(C)(C)C)C(=O)[C@@H]3[C@]3(Cc4ccc(Cl)cc4)C(=O)N(c4ccc(C)cc4)C(=O)N23)cc1 | inactive: -8.2%
46 | COc1ccc(NC(=O)Nc2ccc3c(c2)C(=O)N([C@H](C)CO)C[C@H](C)[C@H](CN(C)Cc2ccccc2)OCCCC[C@@H](C)O3)cc1 | active: 26.3%
40 | C[C@H](CO)N1C[C@H](C)[C@@H](CN(C)C(=O)Nc2cccc3ccccc23)OCCCC[C@H](C)Oc2ccc(NC(=O)Cc3ccccc3)cc2C1=O | inconclusive: 43.5%

(more compounds)

Row | SMILES | CPE inhibition
49 | CN(CC(=O)Nc1cccc(F)c1)C(=O)c1cc(-c2cccs2)nn1-c1ccccc1 | inconclusive: 36.7%
50 | CCOC(=O)C1=CC[C@H]2c3c(c4ccc(OC)cc4n3C)C(=O)C1N2S(=O)(=O)c1ccc(C)cc1 | active: 31.1%
51 | CN(C)C(=O)c1cccc(-c2ccc([C@@H]3[C@@H](CO)N4CCCCN(CC5CCOCC5)C[C@@H]34)cc2)c1 | inconclusive: 26.1%
52 | Cc1ccc(S(=O)(=O)N(C)C[C@H]2Oc3ccc(NC(=O)Nc4ccc(F)cc4)cc3CC(=O)N([C@@H](C)CO)C[C@@H]2C)cc1 | inconclusive: 22.9%
53 | O=C(Cn1ncc(Cl)c(Cl)c1=O)Nc1ccc2c(c1)OCO2 | inconclusive: 44.4%
54 | C[C@@H]1CN([C@@H](C)CO)C(=O)c2cccc(NC(=O)C3CC3)c2O[C@@H]1CN(C)S(=O)(=O)c1cn(C)cn1 | active: 28.6%
55 | CC(C)(C)CC(C)(C)N=C1Nc2cc(Cl)c(Cl)cc2NC12C[C@H]1CCC(=O)N3CC[C@@H](C2)[C@@H]13 (stereo not given in full) | inconclusive: 76.6%
56 | CC(C)[C@H](NC(=O)C1CC1)C(=O)N1CCC[C@H]1C(=O)NCCc1ccccc1Cl | active: 28.9%
57 | Cn1cnc(S(=O)(=O)N2C[C@@H](O)COC[C@@H]3O[C@@H](CC(=O)NC4CCCC4)CC[C@H]32)c1 | active: 114%
58 | C[C@H]1CCCCO[C@H](CN(C)C(=O)CCCN(C)C)[C@@H](C)CN([C@@H](C)CO)C(=O)c2cc(NS(=O)(=O)c3ccc(F)cc3)ccc2O1 | active: 56.4%
59 | Cc1noc(C)c1S(=O)(=O)N(CC(=O)N1CCc2ccccc21)c1ccc(C(C)C)cc1 | inconclusive: 54.2%
60 | CN1C(=O)c2cc(NC(=O)c3ccc(F)c(F)c3)ccc2OC[C@H]2O[C@H](CC(=O)N3CCCCC3)CC[C@@H]21 | inconclusive: 21.7%
61 | OC(c1cccnc1)c1nc(-c2cccc(F)c2)cs1 (stereo not given) | inconclusive: 41.6%
62 | O=S(=O)(N[C@H]1CC[C@@H](CCn2cc(C3(O)CCCC3)nn2)O[C@@H]1CO)c1ccccc1 | inconclusive: 33.4%
63 | CC(=O)Nc1ccc2c(c1)C(=O)N(C)[C@@H]1CC[C@@H](CC(=O)NCc3ccccc3)O[C@H]1CO2 | inconclusive: 90%
64 | C[C@H]1CN([C@@H](C)CO)C(=O)c2cc(-c3ccccc3)cnc2O[C@H]1CN(C)Cc1ccc(C(=O)O)cc1 | inactive: 4.05%
65 | COc1cccc(S(=O)(=O)N(C)C[C@@H]2Oc3ncc(C#Cc4ccc(F)cc4)cc3C(=O)N([C@H](C)CO)C[C@@H]2C)c1 | inconclusive: 30%
66 | O=c1[nH]cc(S(=O)(=O)N2CCN(c3cccc(C(F)(F)F)c3)CC2)c(=O)[nH]1 | inconclusive: 42.8%
67 | O=C(c1ccc(CSc2ccc(Cl)cc2)o1)N1CCOCC1 | inconclusive: 21.7%
68 | CSCCC(NC(=O)COc1ccccc1)C(=O)OCc1ccc([N+](=O)[O-])cc1 (stereo not given) | inconclusive: 97.7%
69 | C[C@@H]1CN([C@@H](C)CO)C(=O)c2cc(/C=C/c3ccccc3)cnc2O[C@H]1CN(C)C(=O)Nc1ccc(C(F)(F)F)cc1 | active: 22.8%
70 | COC(=O)C1=C(C)N(Cc2cccc(C(F)(F)F)c2)C(=NCc2ccc3c(c2)OCO3)NC1CCc1ccccc1 (stereo not given) | inconclusive: 21%
